US6673570

Columns and labels:
6xMyc-Smad6S [1] = experiment: co-immunoprecipitation from transfected COS7 cells, with and without ALK5ca
6xMyc-Smad3 = experiment: as above
6xMyc-Smad2 = experiment: as above
6xMyc-Smad4 [2] = experiment: as above
6xMyc-Smad7 [3] = experiment: as above
6xMyc-Smad6L [4] = experiment: as above
6xMyc-Smad6S [5] = experiment: co-immunoprecipitation from transfected COS7 cells (Flag IP, Myc blot), with and without ALK6ca
6xMyc-Smad4 [6] = experiment: as above
6xMyc-Smad7 [7] = experiment: as above
6xMyc-Smad6L [8] = experiment: as above

Measured: binding

B1: Flag-tagged AMSH (SAP1/AMSH) (protein, not shown: small tags and cut ends)
chain: MSDHGDVSLPPEDRVRALSQLGSAVEVNEDIPPRRYFRSGVEIIRMASIYSEEGNIEHAFILYNKYITLFIEKLPKHRDYKSAVIPEKKDTVKKLKEIAFPKAEELKAELLKRYTKEYTEYNEEKKKEAEELARNMAIQQELEKEKQRVAQQKQQQLEQEQFHAFEEMIRNQELEKERLKIVQEFGKVDPGLGGPLVPDLEKPSLDVFPTLTVSSIQPSDCHTTVRPAKPPVVDRSLKPGALSNSESIPTIDGLRHVVVPGRLCPQFLQLASANTARGVETCGILCGKLMRNEFTITHVLIPKQSAGSDYCNTENEEELFLIQDQQGLITLGWIHTHPTQTAFLSSVDLHTHCSYQMMLPESVAIVCSPKFQETGFFKLTDHGLEEISSCRQKGFHPHSKDPPLFCSCSHVTVVDRAVTITDLR
binds: all assays above

These are yes or no findings as the source states them, for the method shown. In cells and extracts the contact can be indirect. Binding calls can cover weak binding; strength is not graded here. Sequences can lack the tags named with a protein.
